Reference: publication PMC3694151
Results are given in words; binding and its absence hold for the method and conditions named. In cells and extracts the contact can be indirect. Some binding calls cover weakened binding; strength is not graded here.

The chains behind the UniProt entries cited, without tags or fusion partners. Residues count along the entry.
UniProt P69566: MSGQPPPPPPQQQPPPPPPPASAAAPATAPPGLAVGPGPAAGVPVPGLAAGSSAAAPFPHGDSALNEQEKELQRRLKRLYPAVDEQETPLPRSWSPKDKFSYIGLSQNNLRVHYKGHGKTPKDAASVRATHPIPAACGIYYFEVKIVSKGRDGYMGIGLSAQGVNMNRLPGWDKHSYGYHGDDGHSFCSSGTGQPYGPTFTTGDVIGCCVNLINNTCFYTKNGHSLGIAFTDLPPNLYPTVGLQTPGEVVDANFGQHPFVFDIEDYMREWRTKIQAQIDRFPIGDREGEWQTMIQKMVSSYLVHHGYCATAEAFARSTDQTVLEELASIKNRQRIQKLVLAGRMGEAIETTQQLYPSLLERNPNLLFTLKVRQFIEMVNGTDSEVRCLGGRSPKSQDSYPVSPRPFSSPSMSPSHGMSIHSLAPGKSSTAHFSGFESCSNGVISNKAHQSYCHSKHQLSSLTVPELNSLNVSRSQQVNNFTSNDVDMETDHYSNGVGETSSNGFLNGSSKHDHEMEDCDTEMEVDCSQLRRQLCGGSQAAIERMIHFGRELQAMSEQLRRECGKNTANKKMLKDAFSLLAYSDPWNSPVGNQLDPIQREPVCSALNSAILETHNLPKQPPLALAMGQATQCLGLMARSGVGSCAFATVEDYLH
UniProt P11627, residues 20-1260: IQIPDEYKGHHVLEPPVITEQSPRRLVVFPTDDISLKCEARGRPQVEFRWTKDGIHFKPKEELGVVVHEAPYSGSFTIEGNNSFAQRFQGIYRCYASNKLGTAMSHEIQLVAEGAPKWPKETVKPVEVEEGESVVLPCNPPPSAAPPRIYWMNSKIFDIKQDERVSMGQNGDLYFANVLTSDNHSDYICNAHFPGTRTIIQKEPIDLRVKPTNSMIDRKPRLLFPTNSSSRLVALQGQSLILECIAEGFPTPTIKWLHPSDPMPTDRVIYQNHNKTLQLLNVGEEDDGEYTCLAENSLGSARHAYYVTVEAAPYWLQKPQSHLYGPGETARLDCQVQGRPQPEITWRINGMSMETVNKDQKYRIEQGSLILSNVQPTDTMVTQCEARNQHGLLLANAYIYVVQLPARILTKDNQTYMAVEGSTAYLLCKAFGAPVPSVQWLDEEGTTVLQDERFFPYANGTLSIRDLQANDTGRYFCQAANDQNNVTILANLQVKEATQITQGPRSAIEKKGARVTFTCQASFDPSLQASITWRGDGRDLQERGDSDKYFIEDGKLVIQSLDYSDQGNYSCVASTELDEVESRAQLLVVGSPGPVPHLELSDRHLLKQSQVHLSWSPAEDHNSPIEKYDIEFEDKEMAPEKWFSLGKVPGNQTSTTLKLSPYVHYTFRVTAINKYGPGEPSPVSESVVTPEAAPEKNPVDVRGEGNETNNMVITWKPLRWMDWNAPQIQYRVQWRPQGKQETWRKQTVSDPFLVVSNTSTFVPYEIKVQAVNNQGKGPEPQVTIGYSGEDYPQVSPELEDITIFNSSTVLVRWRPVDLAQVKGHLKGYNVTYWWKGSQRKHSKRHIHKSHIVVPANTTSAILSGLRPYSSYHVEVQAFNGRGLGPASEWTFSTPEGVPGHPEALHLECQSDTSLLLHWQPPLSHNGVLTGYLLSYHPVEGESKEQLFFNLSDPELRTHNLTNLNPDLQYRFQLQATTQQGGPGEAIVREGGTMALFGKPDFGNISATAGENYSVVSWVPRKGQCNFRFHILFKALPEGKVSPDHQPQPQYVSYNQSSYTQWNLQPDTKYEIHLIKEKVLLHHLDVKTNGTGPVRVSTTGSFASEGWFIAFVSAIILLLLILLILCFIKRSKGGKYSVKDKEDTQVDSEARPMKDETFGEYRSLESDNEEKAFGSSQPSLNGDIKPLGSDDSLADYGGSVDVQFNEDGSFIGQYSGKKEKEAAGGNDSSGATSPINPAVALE

Experiments:
[1] = biological target: Ran-binding protein 9 (RanBP9) (UniProt P69566); test: co-IP; reciprocal co-immunoprecipitation of endogenous proteins: precipitated with RanBP9 antibody and L1CAM detected, and precipitated with L1CAM antibodies and RanBP9 detected; lysate and buffer not stated
[2] = biological target: neural cell adhesion receptor L1CAM (UniProt P11627); test: as above

Substance	binding [1]	binding [2]
neural cell adhesion receptor L1CAM (from UniProt P11627 20-1260)	binds	–
Ran-binding protein 9 (RanBP9) (from UniProt P69566 1-653)	–	binds
